Data reported in the supplement of paper PMC6411743.
± gives the standard deviation of the averaged measurements. Only a part is listed here, and it is no random draw. Most values lie at the level of the controls, where differences are scatter.

The chains behind the UniProt entries cited, without tags or fusion partners. Where a name states a change or a piece, a line headed by the entry shows the natural chain unless it says otherwise.
UniProt Q14739: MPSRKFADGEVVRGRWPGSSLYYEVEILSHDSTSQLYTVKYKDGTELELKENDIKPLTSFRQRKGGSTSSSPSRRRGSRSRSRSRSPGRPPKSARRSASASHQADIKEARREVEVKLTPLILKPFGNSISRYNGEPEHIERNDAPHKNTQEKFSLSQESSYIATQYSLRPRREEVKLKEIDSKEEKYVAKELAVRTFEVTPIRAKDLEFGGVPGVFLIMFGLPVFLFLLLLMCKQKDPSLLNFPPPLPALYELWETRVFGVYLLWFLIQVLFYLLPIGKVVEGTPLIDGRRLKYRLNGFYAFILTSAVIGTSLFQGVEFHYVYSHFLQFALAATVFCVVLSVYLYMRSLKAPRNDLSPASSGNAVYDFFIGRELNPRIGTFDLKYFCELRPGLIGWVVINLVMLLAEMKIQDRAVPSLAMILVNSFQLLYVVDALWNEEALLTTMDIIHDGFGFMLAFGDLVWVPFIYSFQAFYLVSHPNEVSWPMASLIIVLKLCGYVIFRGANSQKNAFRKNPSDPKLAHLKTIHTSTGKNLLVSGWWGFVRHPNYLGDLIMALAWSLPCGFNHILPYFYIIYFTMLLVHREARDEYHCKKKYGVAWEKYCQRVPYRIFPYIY
UniProt Q15075: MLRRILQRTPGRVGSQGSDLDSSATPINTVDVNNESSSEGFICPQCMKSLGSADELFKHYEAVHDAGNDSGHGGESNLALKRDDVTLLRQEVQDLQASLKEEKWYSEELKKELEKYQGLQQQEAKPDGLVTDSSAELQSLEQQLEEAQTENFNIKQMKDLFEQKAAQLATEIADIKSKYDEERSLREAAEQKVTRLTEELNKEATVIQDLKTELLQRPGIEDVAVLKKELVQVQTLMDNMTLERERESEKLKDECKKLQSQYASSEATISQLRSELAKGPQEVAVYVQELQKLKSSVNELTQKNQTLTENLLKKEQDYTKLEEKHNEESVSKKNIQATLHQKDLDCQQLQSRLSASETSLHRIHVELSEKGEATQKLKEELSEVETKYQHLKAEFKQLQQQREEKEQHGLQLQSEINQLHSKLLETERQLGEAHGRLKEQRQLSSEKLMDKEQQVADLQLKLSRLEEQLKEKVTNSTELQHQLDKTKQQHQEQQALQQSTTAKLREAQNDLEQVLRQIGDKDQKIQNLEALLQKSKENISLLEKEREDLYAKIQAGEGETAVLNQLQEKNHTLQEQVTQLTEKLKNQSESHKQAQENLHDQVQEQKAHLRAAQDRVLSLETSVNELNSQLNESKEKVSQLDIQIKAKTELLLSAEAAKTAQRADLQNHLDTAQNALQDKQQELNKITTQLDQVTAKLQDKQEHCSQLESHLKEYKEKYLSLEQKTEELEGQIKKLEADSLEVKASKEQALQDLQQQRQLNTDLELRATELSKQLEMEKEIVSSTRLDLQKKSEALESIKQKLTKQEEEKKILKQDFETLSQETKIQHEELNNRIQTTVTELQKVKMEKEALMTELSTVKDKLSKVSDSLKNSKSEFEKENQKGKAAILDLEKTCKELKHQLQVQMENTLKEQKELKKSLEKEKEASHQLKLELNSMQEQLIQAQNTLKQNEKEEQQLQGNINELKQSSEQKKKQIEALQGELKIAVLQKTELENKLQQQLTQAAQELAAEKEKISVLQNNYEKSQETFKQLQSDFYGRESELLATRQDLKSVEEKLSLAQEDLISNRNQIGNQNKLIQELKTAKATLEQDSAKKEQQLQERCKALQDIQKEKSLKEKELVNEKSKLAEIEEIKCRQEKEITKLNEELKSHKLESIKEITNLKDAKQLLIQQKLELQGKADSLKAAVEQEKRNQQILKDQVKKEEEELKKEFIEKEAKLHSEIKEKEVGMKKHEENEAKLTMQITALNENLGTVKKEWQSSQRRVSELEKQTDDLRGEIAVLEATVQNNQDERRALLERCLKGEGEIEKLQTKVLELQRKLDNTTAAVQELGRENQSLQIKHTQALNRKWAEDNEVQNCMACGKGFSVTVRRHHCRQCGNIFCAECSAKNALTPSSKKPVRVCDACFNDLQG
UniProt Q08945, whole entry: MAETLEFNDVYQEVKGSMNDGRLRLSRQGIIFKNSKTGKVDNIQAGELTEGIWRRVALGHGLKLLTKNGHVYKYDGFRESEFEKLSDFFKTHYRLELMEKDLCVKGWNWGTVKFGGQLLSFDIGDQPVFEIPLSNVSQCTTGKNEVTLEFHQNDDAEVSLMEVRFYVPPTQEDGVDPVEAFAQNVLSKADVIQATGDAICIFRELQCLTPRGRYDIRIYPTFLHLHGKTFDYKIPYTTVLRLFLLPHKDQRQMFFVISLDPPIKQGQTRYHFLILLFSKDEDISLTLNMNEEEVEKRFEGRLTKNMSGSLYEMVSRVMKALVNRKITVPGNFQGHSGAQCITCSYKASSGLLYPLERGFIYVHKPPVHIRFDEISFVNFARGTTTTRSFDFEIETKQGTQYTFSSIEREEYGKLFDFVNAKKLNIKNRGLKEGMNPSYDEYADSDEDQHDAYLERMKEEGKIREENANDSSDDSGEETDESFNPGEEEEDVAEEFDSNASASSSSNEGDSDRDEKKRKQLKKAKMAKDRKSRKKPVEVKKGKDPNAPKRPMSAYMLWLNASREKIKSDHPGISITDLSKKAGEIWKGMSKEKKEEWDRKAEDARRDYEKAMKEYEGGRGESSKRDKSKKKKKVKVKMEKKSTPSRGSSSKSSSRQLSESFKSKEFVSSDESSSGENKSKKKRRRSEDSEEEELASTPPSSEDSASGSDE
UniProt Q14680: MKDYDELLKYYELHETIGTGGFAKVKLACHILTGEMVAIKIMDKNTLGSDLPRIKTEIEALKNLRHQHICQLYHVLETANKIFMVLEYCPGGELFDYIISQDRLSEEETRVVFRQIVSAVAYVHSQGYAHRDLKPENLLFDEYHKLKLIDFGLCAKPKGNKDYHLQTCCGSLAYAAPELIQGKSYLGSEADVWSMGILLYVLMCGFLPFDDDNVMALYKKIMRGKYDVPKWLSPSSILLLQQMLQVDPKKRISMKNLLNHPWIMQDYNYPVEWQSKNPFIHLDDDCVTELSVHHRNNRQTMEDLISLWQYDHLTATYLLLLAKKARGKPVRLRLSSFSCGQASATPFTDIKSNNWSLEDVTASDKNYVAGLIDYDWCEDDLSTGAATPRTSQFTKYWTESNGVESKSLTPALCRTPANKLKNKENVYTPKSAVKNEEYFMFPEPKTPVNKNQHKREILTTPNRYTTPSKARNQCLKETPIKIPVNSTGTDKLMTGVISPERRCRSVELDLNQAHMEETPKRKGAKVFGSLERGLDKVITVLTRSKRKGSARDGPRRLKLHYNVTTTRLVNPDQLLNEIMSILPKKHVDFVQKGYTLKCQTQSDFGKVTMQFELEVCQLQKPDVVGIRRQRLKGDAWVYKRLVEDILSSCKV
UniProt Q14677: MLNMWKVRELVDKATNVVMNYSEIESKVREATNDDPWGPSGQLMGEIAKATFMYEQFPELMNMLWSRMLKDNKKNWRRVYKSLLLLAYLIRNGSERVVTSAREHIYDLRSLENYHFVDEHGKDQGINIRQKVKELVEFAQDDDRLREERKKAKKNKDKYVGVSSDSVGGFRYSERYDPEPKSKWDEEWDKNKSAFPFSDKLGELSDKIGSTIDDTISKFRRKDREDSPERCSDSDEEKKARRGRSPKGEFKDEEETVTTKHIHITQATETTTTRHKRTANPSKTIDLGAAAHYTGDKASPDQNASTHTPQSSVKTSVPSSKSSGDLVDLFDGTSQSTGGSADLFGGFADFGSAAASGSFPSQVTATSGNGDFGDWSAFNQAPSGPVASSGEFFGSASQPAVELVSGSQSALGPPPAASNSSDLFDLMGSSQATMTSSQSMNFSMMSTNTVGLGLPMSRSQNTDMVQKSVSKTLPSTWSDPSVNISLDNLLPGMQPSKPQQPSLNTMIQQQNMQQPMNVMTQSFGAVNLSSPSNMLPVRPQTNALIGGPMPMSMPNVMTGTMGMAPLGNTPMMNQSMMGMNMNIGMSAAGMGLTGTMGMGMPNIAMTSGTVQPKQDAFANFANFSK
UniProt Q13825: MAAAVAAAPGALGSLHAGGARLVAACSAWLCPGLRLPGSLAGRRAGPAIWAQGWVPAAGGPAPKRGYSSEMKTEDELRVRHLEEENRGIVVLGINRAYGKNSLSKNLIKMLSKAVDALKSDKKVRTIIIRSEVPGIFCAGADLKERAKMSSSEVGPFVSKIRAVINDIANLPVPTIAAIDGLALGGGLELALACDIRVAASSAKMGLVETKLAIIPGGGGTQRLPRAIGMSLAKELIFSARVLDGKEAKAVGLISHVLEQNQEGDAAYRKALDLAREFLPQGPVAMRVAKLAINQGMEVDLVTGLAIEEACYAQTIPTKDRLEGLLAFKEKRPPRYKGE
UniProt Q13445: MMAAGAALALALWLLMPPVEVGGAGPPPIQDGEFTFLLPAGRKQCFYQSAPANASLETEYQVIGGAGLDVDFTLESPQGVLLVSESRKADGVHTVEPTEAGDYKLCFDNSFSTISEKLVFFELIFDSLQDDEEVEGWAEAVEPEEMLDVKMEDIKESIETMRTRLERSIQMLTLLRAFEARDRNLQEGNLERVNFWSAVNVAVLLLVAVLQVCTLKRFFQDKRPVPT
UniProt Q14781, whole entry: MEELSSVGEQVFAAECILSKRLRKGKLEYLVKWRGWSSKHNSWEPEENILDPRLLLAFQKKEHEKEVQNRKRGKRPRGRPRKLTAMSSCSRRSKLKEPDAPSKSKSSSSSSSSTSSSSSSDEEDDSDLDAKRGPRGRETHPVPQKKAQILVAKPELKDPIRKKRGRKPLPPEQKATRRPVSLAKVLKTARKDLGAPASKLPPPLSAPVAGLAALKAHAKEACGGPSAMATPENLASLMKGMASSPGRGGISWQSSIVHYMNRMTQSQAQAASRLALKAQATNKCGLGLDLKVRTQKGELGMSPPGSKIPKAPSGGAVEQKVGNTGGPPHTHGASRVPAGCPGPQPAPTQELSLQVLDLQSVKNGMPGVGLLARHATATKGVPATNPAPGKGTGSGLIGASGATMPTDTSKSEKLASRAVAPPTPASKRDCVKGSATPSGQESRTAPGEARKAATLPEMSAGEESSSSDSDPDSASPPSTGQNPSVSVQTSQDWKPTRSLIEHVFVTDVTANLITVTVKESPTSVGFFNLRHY
UniProt Q13185: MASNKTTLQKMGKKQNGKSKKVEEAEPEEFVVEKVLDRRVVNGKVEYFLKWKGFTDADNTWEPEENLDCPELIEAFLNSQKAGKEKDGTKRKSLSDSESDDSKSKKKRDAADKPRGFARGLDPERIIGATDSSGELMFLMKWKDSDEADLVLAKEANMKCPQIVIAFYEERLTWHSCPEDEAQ
UniProt Q13303: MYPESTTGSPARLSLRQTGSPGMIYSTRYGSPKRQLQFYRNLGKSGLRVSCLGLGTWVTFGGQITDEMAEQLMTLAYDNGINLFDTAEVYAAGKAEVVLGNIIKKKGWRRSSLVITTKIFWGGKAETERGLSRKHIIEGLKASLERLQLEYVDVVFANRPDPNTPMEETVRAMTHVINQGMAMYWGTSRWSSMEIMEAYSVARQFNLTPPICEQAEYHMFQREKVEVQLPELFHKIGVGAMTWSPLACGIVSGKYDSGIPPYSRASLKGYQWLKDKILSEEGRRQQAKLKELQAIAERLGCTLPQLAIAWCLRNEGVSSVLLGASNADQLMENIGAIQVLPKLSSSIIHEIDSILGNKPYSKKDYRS
UniProt Q13868, whole entry: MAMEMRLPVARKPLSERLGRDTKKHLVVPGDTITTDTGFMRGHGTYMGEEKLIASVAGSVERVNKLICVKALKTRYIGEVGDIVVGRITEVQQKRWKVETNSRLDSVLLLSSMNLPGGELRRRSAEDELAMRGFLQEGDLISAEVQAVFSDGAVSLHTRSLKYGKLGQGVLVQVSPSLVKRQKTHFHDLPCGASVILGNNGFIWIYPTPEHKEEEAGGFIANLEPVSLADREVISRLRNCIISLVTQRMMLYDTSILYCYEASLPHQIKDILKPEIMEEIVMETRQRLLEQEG
UniProt Q14344, whole entry: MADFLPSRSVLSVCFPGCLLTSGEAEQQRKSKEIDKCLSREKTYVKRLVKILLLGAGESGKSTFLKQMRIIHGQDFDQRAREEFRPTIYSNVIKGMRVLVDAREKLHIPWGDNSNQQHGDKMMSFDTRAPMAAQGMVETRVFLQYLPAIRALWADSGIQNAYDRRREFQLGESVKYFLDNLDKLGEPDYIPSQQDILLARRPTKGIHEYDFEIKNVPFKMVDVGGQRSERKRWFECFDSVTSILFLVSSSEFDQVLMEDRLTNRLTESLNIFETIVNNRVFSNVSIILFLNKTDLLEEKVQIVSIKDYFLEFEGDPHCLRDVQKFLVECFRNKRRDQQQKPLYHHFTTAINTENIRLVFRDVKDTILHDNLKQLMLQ

Compound: Nc1ncnc2c1ncn2[C@@H]1O[C@H](COP(=O)(O)OP(=O)(O)NP(=O)(O)O)[C@@H](O)[C@H]1O [adenylyl imidodiphosphate]
Test: NP40-soluble protein abundance relative to vehicle (solubility fold change) (ratio); higher = more soluble protein in presence of AMP-PNP
Method in brief: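 In three independent experiments, Jurkat crude lysate made by Dounce homogenisation was treated for 10 min at room temperature and then 3 min at 37 °C with eight concentrations ranging from 0.1 to 10 mM. It was then solubilised with 0.8% NP40 plus benzonase for 60 min at 4 °C and ultracentrifuged. The supernatant was TMT-labelled for LC-MS/MS, and each value is the fold change against the detergent-processed vehicle for the same replicate, using vsn-normalised intensities.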

Target	NP40-soluble protein abundance (concentration: 0.1mM)	NP40-soluble protein abundance (concentration: 0.5mM)
LBR (UniProt Q14739)	1.01 ± 0.03	1.01 ± 0.028
UniProt Q13469 and related entries	0.974 ± 0.016	0.9877 ± 0.0079
EEA1 (UniProt Q15075)	0.98 ± 0.029	0.997 ± 0.047
PPP1R8 (UniProt Q12972)	0.973 ± 0.022	1.01 ± 0.022
DPYD (UniProt Q12882)	0.998 ± 0.02	0.9633 ± 0.0012
UniProt Q14008 and related entries	1.004 ± 0.0046	1.02 ± 0.02
SSRP1 (UniProt Q08945)	1 ± 0.054	1.07 ± 0.041
UniProt Q14680 and related entries	0.9988 ± 0.0077	1.02 ± 0.023
UniProt Q14677 and related entries	0.94 ± 0.021	0.986 ± 0.034
UniProt Q13825 and related entries	0.986 ± 0.025	1 ± 0.034
UniProt Q14687 and related entries	1.03 ± 0.073	1.02 ± 0.076
TMED1 (UniProt Q13445)	1.02 ± 0.025	0.988 ± 0.038
PLS1 (UniProt Q14651)	1 ± 0.053	1.051 ± 0.0073
CBX2 (UniProt Q14781)	0.991 ± 0.038	1.01 ± 0.015
UniProt Q10567-3|Q10567-4	0.954 ± 0.015	1.01 ± 0.012
CBX3 (UniProt Q13185)	0.978 ± 0.058	0.977 ± 0.011
UniProt Q13303 and related entries	1.03 ± 0.036	1.01 ± 0.083
UniProt Q14980 and related entries	1.01 ± 0.045	1.04 ± 0.05
UniProt Q14934 and related entries	0.989 ± 0.029	0.997 ± 0.046
EXOSC2 (UniProt Q13868)	1.02 ± 0.025	1.04 ± 0.077
GNA13 (UniProt Q14344)	0.994 ± 0.061	0.959 ± 0.092
ERCC8 (UniProt Q13216)	1.02 ± 0.015	0.99 ± 0.024

Record cards (already shown):
UniProt Q10567-3|Q10567-4 is listed as NP40-soluble protein abundance (concentration: 0.1mM): 0.954 ± 0.015; NP40-soluble protein abundance (concentration: 0.5mM): 1.01 ± 0.012
UniProt Q14677 and related entries is listed as NP40-soluble protein abundance (concentration: 0.1mM): 0.94 ± 0.021; NP40-soluble protein abundance (concentration: 0.5mM): 0.986 ± 0.034
